Where a sequence shows no end group, the ends are not given. Some peptides are written in HELM: one residue between dots, names in brackets for other building blocks, links after the first $. The star is where a group is joined. NHNH2 = NN*
Experiment: peptide made by a vendor
Details: whole synthesis
For “Ac-IKAQWLAAEFIQAVAAVLAMLRNNQFEFAGVAH-NHNH2 (SMILES CC[C@H](C)[C@H](NC(C)=O)C(=O)N[C@@H](CCCCN)C(=O)N[C@@H](C)C(=O)N[C@@H](CCC(N)=O)C(=O)N[C@@H](Cc1c[nH]c2ccccc12)C(=O)N[C@@H](CC(C)C)C(=O)N[C@@H](C)C(=O)N[C@@H](C)C(=O)N[C@@H](CCC(=O)O)C(=O)N[C@@H](Cc1ccccc1)C(=O)N[C@H](C(=O)N[C@@H](CCC(N)=O)C(=O)N[C@@H](C)C(=O)N[C@H](C(=O)N[C@@H](C)C(=O)N[C@@H](C)C(=O)N[C@H](C(=O)N[C@@H](CC(C)C)C(=O)N[C@@H](C)C(=O)N[C@@H](CCSC)C(=O)N[C@@H](CC(C)C)C(=O)N[C@@H](CCCNC(=N)N)C(=O)N[C@@H](CC(N)=O)C(=O)N[C@@H](CC(N)=O)C(=O)N[C@@H](CCC(N)=O)C(=O)N[C@@H](Cc1ccccc1)C(=O)N[C@@H](CCC(=O)O)C(=O)N[C@@H](Cc1ccccc1)C(=O)N[C@@H](C)C(=O)NCC(=O)N[C@H](C(=O)N[C@@H](C)C(=O)N[C@@H](Cc1c[nH]cn1)C(=O)NN)C(C)C)C(C)C)C(C)C)[C@@H](C)CC)”, the “final HPLC purity” value was 95.04%.
With HGDGSFSDEMNTILDNLAARDFINWLIQTKITD the “final HPLC purity” value was 95.19%.
With “PEPTIDE1{[ac].[dI].[dK].[dA].[dQ].[dW].[dL].[dA].[dA].[dE].[dF].[dI].[dQ].[dA].[dV].[dA].[dA].[dV].[dL].[dA].[dM].[dL].[dR].[dN].[dN].[dQ].[dF].[dE].[dF].[dA].G.[dV].[dA].[dH].[am]}$$$$V2.0” the “final HPLC purity” value was 96.60%.
With “PEPTIDE1{[ac].[dI].[dK].[dA].[dQ].[dW].[dL].[dA].[dA].[dE].[dF].[dI].[dQ].[dA].[dV].[dA].[dA].[dV].[dL].[dA].[dM].[dL].[dR].[dN].[dN].[dQ].[dF].[dE].[dF].[dA].G.[dV].[dE].[dH].[am]}$$$$V2.0” the “final HPLC purity” value was 95.10%.

From article PMC10424673 (Journal of Medicinal Chemistry, 2023)
